A short description of this assay: qHTS Assay for Lipid Storage Modulators in Drosophila S3 Cells.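 For cell number change: cells counted by Cell Tracker Red CMTPX staining in the red channel.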 The note with it: BODIPY lipid droplet fluorescence, 18-24 h; for cell number change: measured here: cell count max response, cells fed with added oleic acid. The method, boiled down: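 Drosophila S3 cells got compounds at several concentrations plus oleic acid (400 uM solution). Laser-scanning cytometry with 488 nm excitation read lipid droplets at 500-530 nm and cells at 575-640 nm. Percent activity was relative to 20 uM Triacsin C.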
For orientation: qHTS replaces the single test concentration by a dilution series.

Setting [1] is: measured here: lipid fluorescence (Fed channel) AC50, cells fed with added oleic acid.
[2] abbreviates: measured here: cell number channel AC50, cells fed with added oleic acid.

Molecules are shown by their SMILES. This is one part of the list. Shown are side measurements of this screen, not its main read-out; they come without a call. Most of these compounds were active or inconclusive in the main read-out, so they are no random draw. Potencies come from curve fits of mixed quality, noted in brackets.

Consider 18 compounds from PubChem BioAssay AID2685 (National Center for Advancing Translational Sciences (NCATS), 2010).

As a reminder, the AC50 is the concentration at which the activity in the assay is half-maximal. Regarding `COc1cccc(CN(C)CC(=O)NNC(=O)c2ccc(Cl)cc2)c1`, the cell number change turned out to be 14.1%. In addition, under setting [1], the AC50 is 20.6 µM [rising, single point].

Regarding `Cc1ccc(C2OCC3(CO2)COC(c2ccc(C)cc2)OC3)cc1` (centres undefined), the cell number change worked out at 2.79%. Moreover, the AC50 under setting [2] was 6.51 µM [falling, single point]. Further, under setting [1], the AC50 was 6.51 µM [falling, single point]. For `COc1cc(C(=O)Nc2ccc3c(c2)OCO3)ccc1-n1cnnn1`, the cell number change is -7.37%. Turning to `CCc1ccc(CNC(=O)CCC(=O)n2ncc3cc(C)ccc32)cc1`, the cell number change is -6.34%.

Take `Cc1cc(Nc2ccccc2)nc(-c2ccccc2O)n1`: the cell number change was -29.4%. Besides, the AC50 under setting [1] is 6.51 µM [rising, single point]. In the case of `CCCOc1c(OC)cccc1C1CC(=O)Nc2cc(OC)c(OC)c(OC)c21` (centres undefined), the cell number change was -19.5%. In addition, under setting [1], the half-maximal activity concentration (AC50) is 29.1 µM [falling, single point]. Take `NC(=O)Cc1ccc(C(=O)c2ccc(F)cc2)s1`: the cell number change worked out at 35.3%. In addition, under setting [2], the AC50 is 0.00517 µM [rising, full curve]. On to `Cc1ccc(OCC(=O)NNC(=O)Cc2ccc(S(=O)(=O)N3CCOCC3)s2)cc1`, for which the cell number change was 19.8%. The AC50 under setting [1] is 29.1 µM [rising, single point]. For `O=S(=O)(c1ccccc1Oc1ccc(Cl)cc1Cl)N1CCCCC1`, the cell number change was determined as 6.34%. Under setting [2], the AC50 was 4.61 µM [falling, single point]. As for `O=C(c1ccco1)N1CCN(C(=S)Nc2ccc(F)c(Cl)c2)CC1`, the cell number change worked out at 17.4%. For the same compound, the AC50 under setting [2] was 1.84 µM [rising, partial curve]. With `CC12CCC(C(=O)N(NC(=O)c3ccccc3O)C1=O)C2(C)C` (centres undefined), the cell number change was determined as 8.03%. As for `Cc1ccc(CN(C(=O)c2c(F)cccc2F)C2CC(C)(C)NC(C)(C)C2)o1`, the cell number change was -13.2%. Besides, the AC50 under setting [1] is 3.66 µM [falling, single point]. As for `CC(C)N1CCN(C(=O)c2cccc(Cl)c2)CC1`, the cell number change came out at 17.4%. With `CC(=O)NC(c1cc(F)c2cccnc2c1O)C1CC1` (centres undefined), the cell number change amounted to 14.2%. With `CN(C)CCCCOc1ccccc1F`, the cell number change is -4.18%. Moreover, the AC50 under setting [1] was 2.82 µM [falling, single point]. Turning to `O=C(NCCF)[C@H]1C[C@@H]1[C@H](NP(=O)(c1ccccc1)c1ccccc1)c1ccccc1`, the cell number change worked out at 22.8%. Moreover, under setting [1], the concentration at half-maximal activity (AC50) is 2.59 µM [rising, partial curve, poor fit].

As to `CC(C)N(C(=O)COC(=O)c1cccc(S(=O)(=O)N2CC3(C)CC2CC(C)(C)C3)c1)C(C)C` (centres undefined), the cell number change was -25%. Moreover, under setting [2], the AC50 was 3.26 µM [rising, partial curve]. Moreover, under setting [1], the AC50 is 0.366 µM [rising, full curve, poor fit]. For the compound `COc1ccc2c(c1)OC[C@H]1[C@H]2N2C(=O)c3cc(Br)ccc3NC(=O)[C@@]2(C)[C@H]1c1ccccc1`, the cell number change was determined as 2.84%. Also, the AC50 under setting [2] was 6.51 µM [falling, single point]. In addition, the AC50 under setting [1] is 0.58 µM [falling, single point].
